These are yes or no findings as the source states them, for the method shown. Some binding calls cover weakened binding; strength is not graded here.
Molecular target: T1, recombinant Immuno-moodulin (recombinant Imood) (mouse) (UniProt Q8C5P7)
T1 sequence: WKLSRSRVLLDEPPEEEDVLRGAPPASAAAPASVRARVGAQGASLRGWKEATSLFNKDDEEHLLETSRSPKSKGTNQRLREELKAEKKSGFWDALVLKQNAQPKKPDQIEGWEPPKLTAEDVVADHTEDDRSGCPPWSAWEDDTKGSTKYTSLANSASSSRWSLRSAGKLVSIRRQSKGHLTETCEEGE
Experiment: hybridoma supernatants screened by western blot and immunoprecipitation of recombinant Imood (FIG. 6)

B1: monoclonal anti-Imood antibody 1B10 (antibody, V domains shown)
VH: AVQLVESGGGLVQPEESLKISCAASGITFSNVAMYWVRQAPGKGLEWVARIRSKANNYATYYADSVKGRFTISRDDSKSMVYLQMDNLKTEDTAMYYCSAWVIVPLYFDYWGQGVMVTVSS
VL: DIVMTQAPLSVSVTPGESASISCRSSKSLLSSKGITSLYWYLQRPGKSPQLLIYQMSNLASGVPDRFSSSGSETDFTLKISKVEAEDVGVYYCGHRLQTPFTFGSGTKLEIK
binding: binds

B2: monoclonal anti-Imood antibody 1C4 (antibody, V domains shown)
VH: EVQLVESGGGLVQPGRSLKLSCAASGFTFSDYNMAWVRQAPKRGLEWVATIIYDGDRTYYRDSVKGRFTISRDKAKTTLYLQMDSLRSEDTATYYCATGLAYWGQGTLVTVSS
VL: DIVMTQTPSSQAVSPGEKVTMSCKSSQSLLYSENKKNYLAWYQQKPGQSPKLLIYWASTRESGVPDRFIGSGSGTDFTLTISSVQAEDLAVYYCQQYYNFPSTFGTGTTLELK
binding: binds

From patent US20260042829A1
